No end group written: not given here.
experiment: general procedure: Fmoc solid-phase peptide synthesis; 2-chlorotrityl chloride resin (0.73 mmol/g); DIC/HOBt; settings: whole synthesis, scale of the general procedure 2.0192 g resin, acetate (salt exchange)

| Substance | final purity (method not given) | isolated yield |
| --- | --- | --- |
| AAAEPVPLVKQD | 100.0% | 61.6% |
| AAEPVPL | 100.0% | 60.3% |
| AAEPVPLVKQD | 100.0% | – |
| AEPVPL | 100.0% | 71.7% |
| AEPVPLVKQD | 100.0% | 48.3% |
| Ala-Glu-Pro-Val (AEPV) | 100.0% | 57.8% |
| Ala-Glu-Pro-Val-Pro (AEPVP) | 100.0% | 47.8% |
| EPVPLVKQD | 94.1% | 56.0% |
| GAAEPVPLVKQD | 100.0% | – |
| GAAVPVPLVKQD | 100.0% | 58.9% |
| GAGVGVPLVKQD | 100.0% | 54.5% |
| GAGVPVPLVKQD | 100.0% | 45.0% |
| Glu-Pro-Val-Pro-Leu (EPVPL) | 97.9% | 52.2% |
| PAADPVPLVKQD | 99.6% | 52.9% |
| PAAEAVALVKQD | 99.7% | 19.1% |
| PAAEAVPLVKQD | 100.0% | 52.0% |
| PAAEGVGL | 98.9% | 67.9% |
| PAAEGVGLVKQD | 100.0% | 14.4% |
| PAAEGVPLVKQD | 97.9% | 56.8% |
| PAAEPV | 100.0% | 94.3% |
| PAAEPVAFVK | 100.0% | 59.0% |
| PAAEPVAFVKQD | 100.0% | 43.3% |
| PAAEPVALVK | 100.0% | 60.1% |
| PAAEPVALVKQD | 100.0% | 37.7% |

| Substance | final purity (method not given) | isolated yield |
| --- | --- | --- |
| PAAEPVAVVK | 100.0% | 57.3% |
| PAAEPVGAVKQD | 100.0% | 38.1% |
| PAAEPVGFVK | 100.0% | 55.5% |
| PAAEPVGLVK | 100.0% | 53.5% |
| PAAEPVGLVKQD | 99.2% | 42.3% |
| PAAEPVGVVK | 100.0% | 56.9% |
| PAAEPVGVVKQD | 100.0% | 46.5% |
| PAAEPVP | 100.0% | 55.4% |
| PAAEPVPFVK | 100.0% | 53.8% |
| PAAEPVPFVKQD | 100.0% | 78.3% |
| PAAEPVPIVK | 99.6% | 58.5% |
| PAAEPVPIVKQD | 100.0% | 53.5% |
| PAAEPVPL | 100.0% | 60.3% |
| PAAEPVPLIKQD | 100.0% | 57.2% |
| PAAEPVPLLKQD | 100.0% | 61.8% |
| PAAEPVPLMKQD | 100.0% | 33.3% |
| PAAEPVPLVK | 99.8% | 33.8% |
| PAAEPVPLVKDD | 99.5% | 51.7% |
| PAAEPVPLVKED | 100.0% | 61.3% |
| PAAEPVPLVKND | 100.0% | 57.7% |
| PAAEPVPLVKQE | 99.5% | 80.8% |
| PAAEPVPLVKQN | 100.0% | 48.4% |
| PAAEPVPLVRQD | 100.0% | 49.8% |
| PAAEPVPLVVQD | 100.0% | 53.9% |

| Substance | final purity (method not given) | isolated yield |
| --- | --- | --- |
| PAAEPVPMVK | 98.6% | 48.8% |
| PAAEPVPMVKQD | 100.0% | 59.4% |
| PAAEPVPVVK | 98.7% | 56.7% |
| PAAEPVPVVKQD | 100.0% | 57.1% |
| PAAEPVPYVK | 100.0% | 51.1% |
| PAAEPVPYVKQD | 100.0% | 38.4% |
| PAALPVPLVKQD | 100.0% | 57.9% |
| PAANPVPLVKQD | 100.0% | 57.5% |
| PAAQPVPLVKQD | 100.0% | 57.4% |
| PAAVPVPLVKQD | 100.0% | 54.4% |
| PAGEPVPLVKQD | 100.0% | 56.7% |
| PAIEPVPLVKQD | 100.0% | 72.1% |
| PALEPVPLVKQD | 100.0% | 64.7% |
| PAPEPVPLVKQD | 100.0% | 22.2% |
| PIAEPVPLVKQD | 100.0% | 41.9% |
| PLAEPVPLVKQD | 100.0% | 62.7% |
| PLVKQD | 100.0% | 49.8% |
| PVPLVKQD | 100.0% | 43.6% |
| Pro-Ala-Ala-Glu | 100.0% | 65.3% |
| Pro-Ala-Ala-Glu-Pro (PAAEP) | 99.2% | 59.3% |
| Pro-Val-Pro-Leu (PVPL) | 100.0% | 46.4% |
| VPLVKQD | 100.0% | – |
| Val-Pro-Leu-Val (VPLV) | 100.0% | 58.3% |

same assay, conditions: whole synthesis, scale of the general procedure 2.0192 g resin, acetate (salt exchange); run 1

| Substance | isolated yield |
| --- | --- |
| VPLVKQD | 57.9% |

same assay, conditions: whole synthesis, scale of the general procedure 2.0192 g resin, acetate (salt exchange); run 2

| Substance | isolated yield |
| --- | --- |
| VPLVKQD | 53.3% |

Source: patent US12351651B2 (Sichuan Gooddoctor Panxi Pharmaceutical Co., Ltd., priority 2020, dated 2025)
